# Taken from: PubChem BioAssay AID1224829 (NIAID, 2016)
# Screen: 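Follow-up of TLR4-NF-kappaB regulators using six separate siRNAs for each gene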 (follow-up of hits)
# Cells: mouse RAW264.7 G9 macrophage reporter cells
# Reagent: single siRNA against mouse genes, 100 nM
# Duration: 2 days of siRNA knock-down, then 40 min of LPS before fixing
# Conditions: LPS (Salmonella minnesota R595) at 10 ng/ml
# Measurement: 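Imaging of GFP-p65 after 40 min of LPS; nuclear over perinuclear ring intensity ratio, scaled to plate median and non-targeting control wells, given as z-score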
# Scale: p65 translocation z-score: higher = more nuclear NF-kappaB p65 after LPS
# Hit rule: 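Active means the replicate-mean z-score lies beyond plus or minus 2, in either direction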
# Meaning of the calls: active = changed p65 translocation (either direction); inactive = no clear change
# This is a random part of about 3,800 deposited reagents. 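Calls cover raised and lowered translocation; gene median uses one vendor's three siRNAs; qiagen siRNAs acted more weakly than ambion siRNAs.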 Unmarked entries are inactive. The numbers tell different reagents against one gene apart. Not all columns of the deposit are shown.
Target gene,siRNA no.,siRNA vendor or control pool,"p65 translocation z-score, replicate mean","p65 translocation z-score, replicate 1","p65 translocation z-score, replicate 2"
Kif23,1,ambion single siRNA,-1.05,-1.05,
Kif23,2,ambion single siRNA,-1.51,-3.19,0.177
Kif23,3,ambion single siRNA,-6.92 (active),-8.99,-4.85
Kif23,4,qiagen single siRNA,-6.73 (active),-6.73,
Kif23,5,qiagen single siRNA,-0.682,0.634,-2
Kif23,6,qiagen single siRNA,-1.59,-1.59,
Eif1,1,ambion single siRNA,1.61,1.61,
Eif1,2,ambion single siRNA,-2.4 (active),-2.73,-2.06
Eif1,3,ambion single siRNA,-4.79 (active),-4.04,-5.55
Eif1,4,qiagen single siRNA,0.547,1.84,-0.748
Eif1,5,qiagen single siRNA,-1.29,-0.459,-2.12
Eif1,6,qiagen single siRNA,0.612,-0.251,1.48
Zfp286,1,ambion single siRNA,-3.41 (active),-4.9,-1.93
Zfp286,2,ambion single siRNA,-2.03 (active),-1.04,-3.01
Zfp286,3,ambion single siRNA,-2.48 (active),-1.59,-3.37
Zfp286,4,qiagen single siRNA,1.05,0.581,1.52
Zfp286,5,qiagen single siRNA,0.755,2.19,-0.679
Zfp286,6,qiagen single siRNA,0.0058,0.888,-0.876
Large1,1,ambion single siRNA,-1.17,-1.83,-0.503
Large1,2,ambion single siRNA,-1.06,-1.4,-0.728
Large1,3,ambion single siRNA,-0.784,-1.03,-0.535
Large1,4,qiagen single siRNA,-1.27,-3.28,0.739
Large1,5,qiagen single siRNA,0.76,0.551,0.968
Large1,6,qiagen single siRNA,1.69,1.69,

Laid out differently: entries from further up.
{"Target gene":"Kif23","siRNA no.":4,"siRNA vendor or control pool":"qiagen single siRNA","p65 translocation z-score, replicate mean":"-6.73 (active)","p65 translocation z-score, replicate 1":-6.73}
{"Target gene":"Kif23","siRNA no.":5,"siRNA vendor or control pool":"qiagen single siRNA","p65 translocation z-score, replicate mean":-0.682,"p65 translocation z-score, replicate 1":0.634,"p65 translocation z-score, replicate 2":-2}
